Reference: the supplement of paper PMC12819154, “High-throughput peptide-centric local stability assay extends protein–ligand identification to membrane proteins, tissues and bacteria” (Nature Structural & Molecular Biology, 2025)
The list shows a part of the results. Small differences around the control level are noise.

Protein sequences, listed by entry. Tags and fused reporters are not part of them. Lines headed by an entry give the natural chain unless they say otherwise; changes in a name come on top.
UniProt Q7TNV0: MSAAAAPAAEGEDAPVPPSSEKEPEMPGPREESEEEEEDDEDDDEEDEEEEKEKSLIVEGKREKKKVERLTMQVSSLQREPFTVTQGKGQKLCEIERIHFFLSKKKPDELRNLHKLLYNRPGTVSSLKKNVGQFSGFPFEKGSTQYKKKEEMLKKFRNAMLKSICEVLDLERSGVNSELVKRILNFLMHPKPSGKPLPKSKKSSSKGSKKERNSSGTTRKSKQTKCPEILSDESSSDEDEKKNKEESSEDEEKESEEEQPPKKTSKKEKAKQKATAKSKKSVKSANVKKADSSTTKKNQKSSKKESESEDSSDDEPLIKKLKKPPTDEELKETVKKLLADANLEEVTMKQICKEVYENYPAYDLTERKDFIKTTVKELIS
UniProt Q710D3: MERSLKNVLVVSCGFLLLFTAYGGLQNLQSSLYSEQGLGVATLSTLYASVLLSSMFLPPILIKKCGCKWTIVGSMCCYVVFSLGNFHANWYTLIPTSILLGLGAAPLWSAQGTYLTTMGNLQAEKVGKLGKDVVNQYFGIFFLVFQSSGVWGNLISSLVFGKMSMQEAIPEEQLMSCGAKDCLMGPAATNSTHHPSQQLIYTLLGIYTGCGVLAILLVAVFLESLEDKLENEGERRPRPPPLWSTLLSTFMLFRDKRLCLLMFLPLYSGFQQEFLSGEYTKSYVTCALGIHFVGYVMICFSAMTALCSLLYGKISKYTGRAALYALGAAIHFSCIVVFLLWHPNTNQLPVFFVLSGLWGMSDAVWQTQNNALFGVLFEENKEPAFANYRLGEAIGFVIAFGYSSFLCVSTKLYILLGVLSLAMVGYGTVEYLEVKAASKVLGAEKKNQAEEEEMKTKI
UniProt Q76MZ3, whole entry: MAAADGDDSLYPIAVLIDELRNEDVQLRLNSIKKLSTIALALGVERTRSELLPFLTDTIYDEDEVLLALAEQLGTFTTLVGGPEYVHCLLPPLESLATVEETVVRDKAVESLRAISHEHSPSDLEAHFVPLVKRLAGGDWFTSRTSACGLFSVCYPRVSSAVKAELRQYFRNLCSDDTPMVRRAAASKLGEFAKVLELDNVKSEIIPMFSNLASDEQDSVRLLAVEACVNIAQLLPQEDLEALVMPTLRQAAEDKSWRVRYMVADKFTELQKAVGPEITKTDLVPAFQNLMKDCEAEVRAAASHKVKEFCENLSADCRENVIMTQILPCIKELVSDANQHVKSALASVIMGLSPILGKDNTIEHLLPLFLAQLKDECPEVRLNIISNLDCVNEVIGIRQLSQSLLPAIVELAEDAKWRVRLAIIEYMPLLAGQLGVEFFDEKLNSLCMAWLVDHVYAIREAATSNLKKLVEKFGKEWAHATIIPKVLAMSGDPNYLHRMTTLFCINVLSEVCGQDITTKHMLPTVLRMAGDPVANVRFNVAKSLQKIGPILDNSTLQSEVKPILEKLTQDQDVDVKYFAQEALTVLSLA
UniProt Q7TMB3: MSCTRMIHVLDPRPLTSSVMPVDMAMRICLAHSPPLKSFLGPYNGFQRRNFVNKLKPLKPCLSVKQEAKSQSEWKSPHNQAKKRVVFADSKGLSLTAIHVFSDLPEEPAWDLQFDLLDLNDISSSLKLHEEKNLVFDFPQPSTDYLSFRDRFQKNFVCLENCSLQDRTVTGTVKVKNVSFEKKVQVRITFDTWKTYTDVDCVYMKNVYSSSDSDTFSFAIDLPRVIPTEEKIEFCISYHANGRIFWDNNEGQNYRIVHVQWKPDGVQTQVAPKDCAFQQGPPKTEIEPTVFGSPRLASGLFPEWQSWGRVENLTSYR
UniProt Q7TSN7: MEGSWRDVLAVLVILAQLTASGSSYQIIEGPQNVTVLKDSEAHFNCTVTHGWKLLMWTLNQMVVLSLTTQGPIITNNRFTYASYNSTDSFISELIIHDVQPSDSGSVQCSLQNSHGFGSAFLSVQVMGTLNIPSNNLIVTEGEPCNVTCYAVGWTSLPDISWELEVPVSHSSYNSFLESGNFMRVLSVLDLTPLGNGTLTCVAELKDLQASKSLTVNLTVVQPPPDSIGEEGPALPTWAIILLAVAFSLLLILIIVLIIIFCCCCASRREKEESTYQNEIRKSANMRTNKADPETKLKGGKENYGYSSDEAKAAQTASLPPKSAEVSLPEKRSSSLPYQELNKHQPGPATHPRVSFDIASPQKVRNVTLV
UniProt Q80VC6: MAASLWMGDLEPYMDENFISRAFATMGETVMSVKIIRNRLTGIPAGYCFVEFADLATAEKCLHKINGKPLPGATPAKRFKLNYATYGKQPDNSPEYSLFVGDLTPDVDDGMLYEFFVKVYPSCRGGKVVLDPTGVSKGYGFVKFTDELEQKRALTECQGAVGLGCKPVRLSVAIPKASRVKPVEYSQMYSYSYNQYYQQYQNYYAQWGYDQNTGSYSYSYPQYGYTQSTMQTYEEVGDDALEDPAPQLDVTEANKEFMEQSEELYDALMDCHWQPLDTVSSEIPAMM
UniProt Q80UU2: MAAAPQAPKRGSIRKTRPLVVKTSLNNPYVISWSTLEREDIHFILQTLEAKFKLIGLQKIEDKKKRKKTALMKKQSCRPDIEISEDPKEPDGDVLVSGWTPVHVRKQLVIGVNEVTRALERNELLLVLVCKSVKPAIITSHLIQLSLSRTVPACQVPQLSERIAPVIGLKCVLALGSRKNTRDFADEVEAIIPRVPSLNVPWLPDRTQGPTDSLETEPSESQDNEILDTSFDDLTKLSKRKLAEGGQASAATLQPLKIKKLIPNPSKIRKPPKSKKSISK
UniProt Q76LS9: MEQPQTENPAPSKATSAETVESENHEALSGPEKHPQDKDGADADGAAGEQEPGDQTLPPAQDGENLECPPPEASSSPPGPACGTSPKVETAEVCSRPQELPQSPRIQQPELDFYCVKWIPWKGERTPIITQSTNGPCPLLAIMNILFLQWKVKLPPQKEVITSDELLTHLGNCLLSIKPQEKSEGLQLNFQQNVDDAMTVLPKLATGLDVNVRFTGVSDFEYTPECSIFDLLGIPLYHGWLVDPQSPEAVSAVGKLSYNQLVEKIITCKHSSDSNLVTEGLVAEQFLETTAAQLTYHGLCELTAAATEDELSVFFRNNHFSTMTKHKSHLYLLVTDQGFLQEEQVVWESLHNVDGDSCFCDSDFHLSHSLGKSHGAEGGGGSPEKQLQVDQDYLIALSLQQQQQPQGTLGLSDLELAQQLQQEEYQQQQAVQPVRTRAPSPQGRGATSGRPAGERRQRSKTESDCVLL
UniProt Q80UV9, whole entry: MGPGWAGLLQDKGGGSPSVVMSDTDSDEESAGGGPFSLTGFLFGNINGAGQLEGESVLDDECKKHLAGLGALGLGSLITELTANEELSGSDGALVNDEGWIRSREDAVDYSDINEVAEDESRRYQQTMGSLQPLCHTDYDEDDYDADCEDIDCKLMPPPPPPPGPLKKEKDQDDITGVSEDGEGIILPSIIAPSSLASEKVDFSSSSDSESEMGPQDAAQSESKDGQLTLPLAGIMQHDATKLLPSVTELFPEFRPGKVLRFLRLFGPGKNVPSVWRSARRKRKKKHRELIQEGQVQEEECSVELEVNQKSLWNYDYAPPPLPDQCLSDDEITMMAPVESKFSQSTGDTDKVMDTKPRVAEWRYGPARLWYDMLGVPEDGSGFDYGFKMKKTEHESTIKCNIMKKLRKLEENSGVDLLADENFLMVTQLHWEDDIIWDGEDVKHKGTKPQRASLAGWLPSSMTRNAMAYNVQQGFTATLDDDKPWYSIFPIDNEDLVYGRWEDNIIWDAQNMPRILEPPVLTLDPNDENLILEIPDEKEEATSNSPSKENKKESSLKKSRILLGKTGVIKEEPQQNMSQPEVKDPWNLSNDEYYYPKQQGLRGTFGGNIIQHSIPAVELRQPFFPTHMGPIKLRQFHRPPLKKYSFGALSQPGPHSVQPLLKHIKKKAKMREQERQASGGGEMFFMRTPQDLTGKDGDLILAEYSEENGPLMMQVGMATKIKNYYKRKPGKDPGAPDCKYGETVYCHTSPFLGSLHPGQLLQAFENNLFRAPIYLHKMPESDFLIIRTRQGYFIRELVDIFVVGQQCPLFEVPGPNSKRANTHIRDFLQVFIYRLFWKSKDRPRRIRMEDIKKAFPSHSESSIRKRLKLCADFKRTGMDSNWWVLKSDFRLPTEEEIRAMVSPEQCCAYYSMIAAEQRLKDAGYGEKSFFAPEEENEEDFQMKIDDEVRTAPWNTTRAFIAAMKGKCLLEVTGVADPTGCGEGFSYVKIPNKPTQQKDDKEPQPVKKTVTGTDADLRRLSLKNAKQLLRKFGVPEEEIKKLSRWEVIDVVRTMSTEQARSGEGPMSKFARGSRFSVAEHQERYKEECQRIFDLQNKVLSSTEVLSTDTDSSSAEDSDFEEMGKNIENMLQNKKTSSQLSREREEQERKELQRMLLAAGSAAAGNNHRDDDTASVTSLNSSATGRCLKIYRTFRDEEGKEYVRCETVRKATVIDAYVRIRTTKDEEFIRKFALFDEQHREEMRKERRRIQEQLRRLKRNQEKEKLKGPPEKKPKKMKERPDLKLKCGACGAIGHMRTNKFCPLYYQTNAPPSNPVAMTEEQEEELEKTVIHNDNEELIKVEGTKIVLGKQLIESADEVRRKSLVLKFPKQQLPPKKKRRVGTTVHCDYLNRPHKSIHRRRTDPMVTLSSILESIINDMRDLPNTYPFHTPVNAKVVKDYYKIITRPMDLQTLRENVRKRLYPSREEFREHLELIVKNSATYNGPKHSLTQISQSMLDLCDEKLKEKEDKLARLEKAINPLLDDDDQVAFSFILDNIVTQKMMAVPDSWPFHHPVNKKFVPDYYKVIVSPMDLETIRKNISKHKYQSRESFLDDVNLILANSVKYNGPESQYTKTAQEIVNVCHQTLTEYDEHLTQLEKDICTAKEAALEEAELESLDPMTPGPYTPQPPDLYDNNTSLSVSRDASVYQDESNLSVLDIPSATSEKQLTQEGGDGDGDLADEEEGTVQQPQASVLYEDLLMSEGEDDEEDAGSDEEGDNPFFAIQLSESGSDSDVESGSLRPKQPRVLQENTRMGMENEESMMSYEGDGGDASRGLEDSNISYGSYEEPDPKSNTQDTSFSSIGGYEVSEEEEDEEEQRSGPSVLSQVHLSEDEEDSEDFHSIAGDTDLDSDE
UniProt Q78PY7: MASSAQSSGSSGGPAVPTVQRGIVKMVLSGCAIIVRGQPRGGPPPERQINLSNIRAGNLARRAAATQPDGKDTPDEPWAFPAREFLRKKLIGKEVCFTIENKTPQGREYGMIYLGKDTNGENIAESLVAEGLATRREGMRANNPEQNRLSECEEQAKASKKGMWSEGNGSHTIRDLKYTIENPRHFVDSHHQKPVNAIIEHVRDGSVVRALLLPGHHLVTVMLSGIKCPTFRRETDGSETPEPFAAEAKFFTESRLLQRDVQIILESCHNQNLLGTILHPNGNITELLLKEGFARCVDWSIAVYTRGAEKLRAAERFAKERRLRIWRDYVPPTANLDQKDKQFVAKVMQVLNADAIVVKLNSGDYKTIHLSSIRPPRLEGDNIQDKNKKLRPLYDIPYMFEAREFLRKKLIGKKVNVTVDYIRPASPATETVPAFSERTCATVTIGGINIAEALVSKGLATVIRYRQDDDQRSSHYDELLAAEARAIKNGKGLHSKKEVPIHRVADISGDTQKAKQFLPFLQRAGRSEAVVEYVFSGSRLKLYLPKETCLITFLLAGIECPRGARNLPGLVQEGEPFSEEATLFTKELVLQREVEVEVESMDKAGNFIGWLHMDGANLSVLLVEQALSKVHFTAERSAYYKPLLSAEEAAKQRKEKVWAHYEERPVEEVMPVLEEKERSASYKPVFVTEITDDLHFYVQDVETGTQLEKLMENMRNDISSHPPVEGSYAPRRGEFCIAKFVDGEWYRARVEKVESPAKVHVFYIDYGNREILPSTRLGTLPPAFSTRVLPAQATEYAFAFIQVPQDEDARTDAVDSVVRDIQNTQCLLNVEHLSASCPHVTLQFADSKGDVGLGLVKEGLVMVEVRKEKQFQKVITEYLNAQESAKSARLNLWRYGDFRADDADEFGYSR
UniProt Q7TMX5: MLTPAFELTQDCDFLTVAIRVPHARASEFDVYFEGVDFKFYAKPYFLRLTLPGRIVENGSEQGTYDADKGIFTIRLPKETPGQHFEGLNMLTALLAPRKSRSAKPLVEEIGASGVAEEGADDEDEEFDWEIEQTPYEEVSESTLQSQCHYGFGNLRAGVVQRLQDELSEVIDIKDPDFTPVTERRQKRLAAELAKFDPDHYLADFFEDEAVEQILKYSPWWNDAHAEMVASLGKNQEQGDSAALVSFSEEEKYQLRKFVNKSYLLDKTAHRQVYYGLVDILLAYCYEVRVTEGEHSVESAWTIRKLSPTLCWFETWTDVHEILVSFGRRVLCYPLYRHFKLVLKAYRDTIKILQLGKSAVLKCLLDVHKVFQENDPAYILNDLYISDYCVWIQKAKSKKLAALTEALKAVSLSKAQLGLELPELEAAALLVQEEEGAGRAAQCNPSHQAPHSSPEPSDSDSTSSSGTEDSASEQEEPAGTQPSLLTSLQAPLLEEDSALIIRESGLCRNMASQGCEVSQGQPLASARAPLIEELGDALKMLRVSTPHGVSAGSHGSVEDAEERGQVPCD

compound: CN[C@@H]1C[C@H]2O[C@@](C)([C@@H]1OC)n1c3ccccc3c3c4c(c5c6ccccc6n2c5c31)C(=O)NC4 [staurosporine]; assay: log2 fold change of tryptic peptide abundance, ligand vs vehicle (limited proteolysis) (log2 ratio); higher = more trypsin-susceptible (destabilized); conditions: ligand concentration: 20 uM; sample: mouse liver crude lysate; replicate design: treated separately

Target	log2 fold change
UniProt Q7TND5 (peptide sequence: MFASLFPHNPQFIGR, peptide start residue: 262)	-0.232
UniProt Q7TNV0 (peptide sequence: SGVNSELVKR, peptide start residue: 173)	0.497
UniProt Q80TM9 (peptide sequence: IEYLDLSHNGLR, peptide start residue: 314)	-0.785
UniProt Q80U28 (peptide sequence: LASDSDAESDSR, peptide start residue: 815)	-0.408
UniProt Q710D3 (peptide sequence: NQAEEEEMKTK, peptide start residue: 447)	-0.419
UniProt Q7M753 (peptide sequence: LVYFEPK, peptide start residue: 200)	-0.184
UniProt Q76MZ3 (peptide sequence: KLSTIALALGVER, peptide start residue: 34)	-0.173
UniProt Q7TMB3 (peptide sequence: LKPLKPCLSVK, peptide start residue: 55)	0.567
UniProt Q7TSN7 (peptide sequence: VSFDIASPQK, peptide start residue: 354)	0.153
UniProt Q80VC6 (peptide sequence: ALTECQGAVGLGCKPVR, peptide start residue: 153)	-0.382
UniProt Q80UU2 (peptide sequence: KLAEGGQASAATLQPLK, peptide start residue: 241)	-0.713
UniProt Q7TPQ3 (peptide sequence: RSETVSVLEATEEETR, peptide start residue: 71)	-0.382
UniProt Q80TQ5 (peptide sequence: LDEDASPLHPTSSQQK, peptide start residue: 308)	0.578
UniProt Q7TQ32 (peptide sequence: GGLASGGLCR, peptide start residue: 65)	0.0389
UniProt Q80TR8 (peptide sequence: GLGETATVLTR, peptide start residue: 861)	0.308
UniProt Q7TSH6 (peptide sequence: GCAYIVMVHR, peptide start residue: 605)	0.319
UniProt Q76LS9 (peptide sequence: WIPWKGER, peptide start residue: 118)	0.161
UniProt Q80UV9 (peptide sequence: TVIHNDNEELIKVEGTK, peptide start residue: 1327)	0.444
UniProt Q7TQC7 (peptide sequence: MAVDLPQDVSSK, peptide start residue: 166)	0.28
UniProt Q6ZQA0 (peptide sequence: FEMDTYAK, peptide start residue: 1713)	0.262
UniProt Q7TN60 (peptide sequence: LHSVYEEEGR, peptide start residue: 770)	-0.207
UniProt Q78PY7 (peptide sequence: EVCFTIENKTPQGR, peptide start residue: 94)	-0.233
UniProt Q80U63 (peptide sequence: QITEEVER, peptide start residue: 421)	0.209
UniProt Q6ZPF3 (peptide sequence: CELPLEK, peptide start residue: 1485)	-0.268
UniProt Q7TMA2 (peptide sequence: SPHHALGLSSR, peptide start residue: 597)	-0.214
UniProt Q80U58 (peptide sequence: GLPNGMDADCK, peptide start residue: 159)	0.317
UniProt Q7TSC1 (peptide sequence: VPKPDALK, peptide start residue: 977)	0.296
UniProt Q7TMX5 (peptide sequence: LAALTEALK, peptide start residue: 400)	0.117
UniProt Q78HU3 (peptide sequence: EYNYGFVVEK, peptide start residue: 251)	0.498

Look-ups from the results shown.
For log2 fold change, UniProt Q80TR8 (peptide sequence: GLGETATVLTR, peptide start residue: 861) is listed with 0.308
For log2 fold change, UniProt Q80U28 (peptide sequence: LASDSDAESDSR, peptide start residue: 815) is listed with -0.408
